For this assay, the target named is T1, intein-BHMT (betaine homocysteine S-methyltransferase) (R. norvegicus) (UniProt O09171).
T1 sequence: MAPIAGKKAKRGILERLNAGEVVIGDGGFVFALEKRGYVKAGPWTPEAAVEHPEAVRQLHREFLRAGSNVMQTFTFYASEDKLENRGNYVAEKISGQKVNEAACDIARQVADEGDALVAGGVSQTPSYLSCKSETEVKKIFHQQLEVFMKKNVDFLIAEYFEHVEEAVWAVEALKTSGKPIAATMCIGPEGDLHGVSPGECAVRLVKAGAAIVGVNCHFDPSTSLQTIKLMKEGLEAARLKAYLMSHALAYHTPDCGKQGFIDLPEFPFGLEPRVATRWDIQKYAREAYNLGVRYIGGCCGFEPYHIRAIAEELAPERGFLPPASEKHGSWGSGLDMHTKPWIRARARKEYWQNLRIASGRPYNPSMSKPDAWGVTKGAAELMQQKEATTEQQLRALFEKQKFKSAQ
In words: affinity purification with mass spectrometry; same intein-BHMT chitin column after the salt gradient; proteins recovered together with BHMT upon intein excision with 30 mM 2-mercaptoethanol, 48 h at 23°C (strong interactors); LC-MS/MS; only the target purified.

No constants are given. Whether binding was seen depends on the method and setting. Binding seen in cells or lysates may run through a third protein. These calls come from enrichment with a bait or labelling near it, and not all partners need be listed.

B1: 2',5'-oligoisoadenylate synthetase-dependent ribonuclease L (protein, UniProt Q80WM6 1-738)
chain: METTDHSTPQCGSASAGGQKTVGKDDYLLIEAVNKGDADRVQQLLEQGADANVCEESGGWTPLHNAVQSGRVDIVNLLLRYGADPHRRKKNGATPFIVAGICGDVSLLQIFLSRGANINERDMYGFTAFMEAAEYGNVEALKFLFAEGADVNLRRETTEDRRRLKQGGATALMSAAENGHPEVVRILLDEMKAEADARDNMGRNALIRSLLNRDCENVEIHVEEITSVLIQYGADINVRGEGEKTPLISAVKRKHTGLVQMLLSQEGIKVNDRDSEGKTALQIAVELKLKEIVRLLLEKGADTKCGDLVWIAKRNYDHGLVKLLLSYEANHDTNPPAKDWLPHSARWGEALERLHSVSRPMTGKLKIFMNDDYKIASTSEGGIYLGIYDNREVAVKVFCENSSRGRKEVSCLRDCGDHSNLLTFYGSEEHKGSLYVCVSLCESTLEKFLNVPREEPMEKGEDKFALSVLLSIFKGVQKLHMHGYSHQNLQPPNILIDSEKAVRLADFDESIQWMRESQTVQRDLEDLGRLVLYVVNKGEIPFETLKGQNDEELLTIAPNEETKDLVHCLFSPGENVKNCLMDLLGHPFFWTWENRYRTLRDVGNESDIKVRNNKSKLLKLLQPQTHAPSRSFDRWTSKIDKRVMSDMNGFYKSRKGYRDTVGDLLKFIRNIGEHINEEKNRQMKEILGDPSRYFQETFPDLVIYIYKKLKETEFRKHFPQPPPSLSVPEAAGPGGVQS
In the case of B1, the binding entry is given as “binds”.

B2: BHMT2 S-methylmethionine homocysteine S-methyltransferase (protein, UniProt Q68FT5 1-363)
chain: MAPAGGPRVKKVILERLDSGEVVVGDGGFLFTLEKRGFVKAGLWTPEAVVEYPSAVRQLHTEFLRAGADVLQTFTFSAAEDRMESKWEAVNAAACDLAQEVADGGAALVAGGICQTSLYKYHKDETRIKNIFRLQLGVFARKNVDFLIAEYFEHVEEAVWAVEVLREVGAPVAVTMCIGPEGDMHGVTPGECAVRLSRAGANIIGVNCRFGPWTSLQTMKLMKEGLRDAGLQAHLMVQCLGFHTPDCGKGGFVDLPEYPFGLEPRVATRWDIQKYAREAYNLGVRYIGGCCGFEPYHIRAIAEELAPERGFLPPASEKHGIWGSGLDMHTKPWIRARARREYWETLLPASGRPFCPSLSKPDA
For the molecule B2, the binding entry is given as “binds”.

B3: Transmembrane emp24 domain-containing protein 9 (protein, UniProt Q5I0E7 38-235)
chain: LYFHIGETEKKCFIEEIPDETMVIGNYRTQLYDKQREEYQPATPGLGMFVEVKDPEDKVILARQYGSEGRFTFTSHTPGEHQICLHSNSTKFSLFAGGMLRVHLDIQVGEHANDYAEIAAKDKLSELQLRVRQLVEQVEQIQKEQNYQRWREERFRQTSESTNQRVLWWSILQTLILVAIGVWQMRHLKSFFEAKKLV
For B3, the binding result is reported as “binds”.

B4: Transmembrane channel-like protein 5 (protein, UniProt Q5M7W4 1-965)
chain: MSSFHKNSSYMEDPDYPGYSGSQNHTQNYLRTQDDLEFPGCLDNPGFHHPRRNPYSSDSRTNPDYHHSLAEPDYPGSPSDADYQNTRCHPRSAHPRTRPDYEPDYEPDYNDFQSESYHPDLSMEPDYPGSHGHPGFAGVRSSVNSTGPRTNLGYLDLEEPDYPGAQGNSYHSGPRSHSNLPGSRRNAGYAGSRINSYPDSLGEPDYPGAENQPNSPDFYGKPDYPGAEEGDVYSPSKTLGVIGRSRGSFGILGREDGDYPEGIEMASLGMAGDPRNGYVNPAYMRGSSPVCPDRNLLLCARDWNTSPQGQKLIASLVPMTSRDRIKTIRNQPRTMQEKRELRKIVDKEKNKQSHGTFEANCCAQCLSSLSLAYRRTKSSLSELLNYISLWQKRFKVIGGKFGTSVLSYFSFLRWLLKFNIFSFVMNFSFIIIPQFTVGEKNTLQFTGLEFFTGAGYFRETVMYYGFYTNSTIRHRMGGASYNMQLAYIFTIGACLVICFFSLLFSMAKYFRNNFINPHIYSRGIAKLIFCWDFTVTHEKAVKLKQKNLSTEIRENLSEIRQENDRLTLNQKLTRFSVHVAAWLVSTGITAACCVAVYYLAEYNSEFLKTHKNPGAVLLLPFVVSCINLAVPRFYSMFRLVERYEIPRQEVYVLLIRNIFLKISIVGILCYYWLNIVALSGEECWETLIGQDIYRLLLMDFVFSLADSLLGEFLRRLIGMKFITSLSLQEFDIARNVLELIYAQTLAWLGIFFCPLLPFIQMITLFIMFYVKNVSLMMNFQPPSKAWRASQMITFFIFLLFFPSFTGVLCTLAITIWRLKPSADCGPFRGLPSFIQSIYSWIDTLSHRPGYLWVVWIYQNLIGSVHFFFILTLIVLIITYLYWQITEGRKVMIRLLHEQIINEGKDKMFLIEKLTKLQDIERRANPSTLVLERREVEQQSPLHLEELDAAPDLRLRRSMQEENAIA
Turning to B4, the binding result is “binds”.

B5: Cullin-associated NEDD8-dissociated protein 2 (protein, UniProt Q9R0L4 1-1273)
chain: MSTGAFYISSLLEKMTSSDKDFSPKSLGGSRVLDPLPWLQILAAITDWISGDRTQDLALPRFMATSDLMSELQKDSIQLDEDSERKVVRTLLRLLEDRSGEVQNLAVKCLGPLVGKVKEYQVENIVDTLCANMRSDKEQLRDIAGIGLKTVLSELPPAATGSGLAISVCRKITGQLTSAIAQQEDVAVQLEALDILSDMLSRLGAPLGTFHASLLHCLLPQLSSPRLAVRKRTVVALGHLAAACSTDLFVELADHLVDRLPGPRAPASPAAIRTLIQCLGSVGRQAGHRLGAHLDRLMPLVEEFCNLDDDELRESCLQAFEAFLRKCPKEMDPHVPNVTSLCLQYMKHDPNYNHDSDEEEQMETEDSEFSEQESEDEYSDDDDMSWKVRRAAAKCMAALISSRPDLLPDFHCTLAPALIRCFKEREENVKADIFGAYIMLLRHTRPPKGWLEAVEEPTQTGRNLNMLRAQVPLVMKALQRQLKDRNVRTRQGCFNLFTELAGVLPGCLAEHMTVLVSGIVFSLADYSSSSTIRMDALAFLQGLLGTEPAEAFHPHLPTLLPPVMACVADPFYKVAAEALLVLQELVRTLWPLDRPRLLDPEPYVGEMSTATLARLRATDLDQEVKERAISCVGHLVGHLGDRLGDDLEPTLLLLLDRLRNEITRLPAVKALTLVAVSPLRLDLQPILAEALPILASFLRKNQRALRLATLAALDALAQSQGLGLPPPAVRSVLAELPALVSENDMHVAQLAVDFLTTVTQTQPASLVEVSGPVLEELLQLLHSPLLPAGVLAATEGFLQALVGTRPPCVEYSELISLLTAPVYNQVGDGGPGLHKQVFHSLARCVAALSAACPQEAAGTASRLVCDARSPHSSTGVKVLAFLSLAEVGQVAGPGPQRELKTVLLEALGSPSEDVRAAAAYALGRVGAGNLPDFLPFLLAQIEAQPRRQYLLLHALREALGAAQPDNLKPYVEDVWALLFQRCESPEEGTRCVVAECIGKLVFVNPPFLLPRFRKQLAAGQPYTRSTVITAVKFLISDQPHSIDPLLKSFIAEFMESLQDPDLNVRRATLTFFNSAVHNKPSLVRDLLDDILPLLYQETKIRRDLIREVEMGPFKHTVDDGLDVRKAAFECMYSLLESCLGQLDICEFLNHVEDGLKDHYDIRMLTFIMLARLAALCPAPVLQRVDRLIEPLRATCTAKVKAGSVKQELEKQDELKRSAMRAVAALMTNPEVRKSPSVADFSTQIRSNPELATLFESIQKDTASGPSMDSMELS
For B5, the binding result was “binds”.

B6: Serine/threonine-protein kinase TAO2 (protein, UniProt Q9JLS3 1-1235)
chain: MPAGGRAGSLKDPDVAELFFKDDPEKLFSDLREIGHGSFGAVYFARDVRNSEVVAIKKMSYSGKQSNEKWQDIIKEVRFLQKLRHPNTIQYRGCYLREHTAWLVMEYCLGSASDLLEVHKKPLQEVEIAAVTHGALQGLAYLHSHNMIHRDVKAGNILLSEPGLVKLGDFGSASIMAPANSFVGTPYWMAPEVILAMDEGQYDGKVDVWSLGITCIELAERKPPLFNMNAMSALYHIAQNESPALQSGHWSEYFRNFVDSCLQKIPQDRPTSEVLLKHRFVLRERPPTVIMDLIQRTKDAVRELDNLQYRKMKKILFQEAPNGPGAEAPEEEEEAEPYMHRAGTLTSLESSHSVPSMSISASSQSSSVNSLADASDNEEEEEEEEEEEEEEEEEGPESREMAMMQEGEHTVTSHSSIIHRLPGSDNLYDDPYQPEMTPGPLQPPAAPPTSTSSSSARRRAYCRNRDHFATIRTASLVSRQIQEHEQDSALREQLSGYKRMRRQHQKQLLALESRLRGEREEHSGRLQRELEAQRAGFGTEAEKLARRHQAIGEKEARAAQAEERKFQQHILGQQKKELAALLEAQKRTYKLRKEQLKEELQENPSTPKREKAEWLLRQKEQLQQCQAEEEAGLLRRQRQYFELQCRQYKRKMLLARHSLDQDLLREDLNKKQTQKDLECALLLRQHEATRELELRQLQAVQRTRAELTRLQHQTELGNQLEYNKRREQELRQKHAAQVRQQPKSLKVRAGQLPMGLPATGALGPLSTGTLSEEQPCSSGQEAILGQRMLGEEEEAVPERMILGKEGTTLEPEEQRILGEEMGTFSSSPQKHRSLVNEEDWDISKEMKESRVPSLASQERNIIGQEEAGAWNLWEKEHGNLVDMEFKLGWVQGPVLTPVPEEEEEEEEEGGAPIGTPRDPGDGCPSPDIPPEPPPSHLRQYPASQLPGFLSHGLLTGLSFAVGSSSGLLPLLLLLLLPLLAAQGGGGLQAALLALEVGLVGLGASYLFLCTALHLPPSLFLLLAQGTALGAVLSLSWRRGLMGVPLGLGAAWLLAWPSLALPLAAMAAGGKWVRQQGPQMRRGISRLWLRVLLRLSPMVFRALQGCAAVGDRGLFALYPKTNKNGFRSRLPVPWPRQGNPRTTQHPLALLARVWALCKGWNWRLARASHRLASCLPPWAVHILASWGLLKGERPSRIPRLLPRSQRRLGLSASRQLPPGTVAGRRSQTRRALPPWR
B6: the binding result is “binds”.

B7: Zinc finger CCCH-type antiviral protein 1 (protein, UniProt Q8K3Y6 1-776)
chain: MADPGVCCFITKILCAHGGRMTLEELLGEIRLPEAQLYELLETAGPDRFVLLETGGQAGITRSVVATTRARVCRRKYCQRPCDSLHLCKLNLLGRCHYAQSQRNLCKYSHDVLSEQNFQILKNHELSGLNQEELACLLVQSDPFFLPEICKSYKGEGRKQTCGQPQPCERLHICEHFTRGNCSYLNCLRSHNLMDRKVLTIMREHGLSPDVVQNIQDICNNKHARRNPPGTRAAHPHRRGGAHRDRSKSRDRFLHNSLEFLSPVVSPLGSGPPSPDVTSCKDSLEDVSVDVTQKFKYLGTHDRAQLSPVSSKAAGVQGPSQMRASQEFSEDGNLDDIFSRNRSDSSSSRASAAKVAQRNEAVAMKMGMEVKGKKEAPDIDRVPFLNSYIDGVTMEKASVSGIPGKKFTANDLENLLLLNDTWKNVAKPQDLQTTGRITDSGQDKAFLQNKYGGNPVWASASTHNAPNGSSQIMDETPNVSKSSTSGFAIKPAIAGGKEAVYSGVQSPRSQVLAVPGEATTPVQSNRLPQSPLSSSSHRAAASGSPGKNSTHTSVSPAIESSRMTSDPDEYLLRYILNPLFRMDNHGPKEICQDHLYKGCQQSHCDRSHFHLPYRWQMFVYTTWRDFQDMESIEQAYCDPHVELILIENHQINFQKMTCDSYPIRRLSTPSYEEKPLSAVFATKWIWYWKNEFNEYIQYGNESPGHTSSDINSAYLESFFQSCPRGVLPFQAGSQKYELSFQGMIQTNIASKTQRHVVRRPVFVSSNDVEQKRRGPE
Take B7: the binding entry is listed as “binds”.

The values above are taken from publication PMC6010280.
